Data reported in patent US8592610B2, “Spiroheterocyclic tetronic acid derivatives” (Bayer CropScience AG, priority 2009, dated 2013).
Some of these results come from one statement about several compounds together.

Assays:
Format in all cases: in vivo
[1] = test system: red spider mite (Tetranychus urticae); experiment: Tetranychus test, OP-resistant (TETRUR spray treatment); settings: application rate 100 g/ha, after 6 days, bean leaf discs
Alopecurus myosuroides [2] = experiment: Herbicidal pre-emergence action; settings: 320 g/ha a.i., three weeks
Echinocloa crus-galli [3] = experiment: Herbicidal pre-emergence action; settings: 320 g/ha a.i., three weeks
Lolium multiflorum [4] = experiment: Herbicidal pre-emergence action; settings: 320 g/ha a.i., three weeks
Alopecurus myosuroides [5] = experiment: Herbicidal post-emergence action; settings: post-emergence section, 80 g/ha, about three weeks
Echinocloa crus-galli [6] = experiment: Herbicidal post-emergence action; settings: post-emergence section, 80 g/ha, about three weeks
Lolium multiflorum [7] = experiment: Herbicidal post-emergence action; settings: post-emergence section, 80 g/ha, about three weeks
Setaria viridis = experiment: Herbicidal post-emergence action; settings: post-emergence section, 80 g/ha, about three weeks

Structure (SMILES)	activity (spider mites killed) [1]	further results
CCc1cc(C)cc(C)c1C1=C(O)C2(CCN(OC)CC2)OC1=O [I-a-3]	≥ 80%	herbicidal effect in percent (Alopecurus myosuroides [2]): ≥ 80%; herbicidal effect in percent (Echinocloa crus-galli [3]): ≥ 80%; herbicidal effect in percent (Lolium multiflorum [4]): ≥ 80%; herbicidal effect in percent (Alopecurus myosuroides [5]): ≥ 80%; herbicidal effect in percent (Echinocloa crus-galli [6]): ≥ 80%; herbicidal effect in percent (Lolium multiflorum [7]): ≥ 80%; herbicidal effect in percent (Setaria viridis): ≥ 80%
CON1CCC2(CC1)OC(=O)C(c1cc(-c3ccc(Cl)cc3)ccc1C)=C2O [I-a-4]	≥ 80%	
CON1CCC2(CC1)OC(=O)C(c1c(C)ccc(-c3ccc(Cl)cc3)c1C)=C2O [I-a-5]	≥ 80%	
CCc1cc(-c2ccc(Cl)cc2)cc(C)c1C1=C(O)C2(CCN(OC)CC2)OC1=O [I-a-6]	≥ 80%	
CCON1CCC2(CC1)OC(=O)C(c1c(C)cc(C)cc1C)=C2O [I-a-7]	≥ 80%	
CCON1CCC2(CC1)OC(=O)C(c1c(C)ccc(-c3ccc(F)cc3)c1C)=C2O [I-a-8]	≥ 80%	
CCON1CCC2(CC1)OC(=O)C(c1c(C)ccc(-c3ccc(Cl)cc3)c1C)=C2O [I-a-12]	≥ 80%	
